The record followed here is paper PMC3662692.

Chains of the proteins cited; added tags and fusions are not shown.
UniProt Q03135: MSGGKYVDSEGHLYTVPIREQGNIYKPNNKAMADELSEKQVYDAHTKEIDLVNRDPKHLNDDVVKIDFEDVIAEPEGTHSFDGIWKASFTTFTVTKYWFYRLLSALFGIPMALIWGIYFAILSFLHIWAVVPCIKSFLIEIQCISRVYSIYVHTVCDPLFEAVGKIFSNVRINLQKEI
UniProt P27986: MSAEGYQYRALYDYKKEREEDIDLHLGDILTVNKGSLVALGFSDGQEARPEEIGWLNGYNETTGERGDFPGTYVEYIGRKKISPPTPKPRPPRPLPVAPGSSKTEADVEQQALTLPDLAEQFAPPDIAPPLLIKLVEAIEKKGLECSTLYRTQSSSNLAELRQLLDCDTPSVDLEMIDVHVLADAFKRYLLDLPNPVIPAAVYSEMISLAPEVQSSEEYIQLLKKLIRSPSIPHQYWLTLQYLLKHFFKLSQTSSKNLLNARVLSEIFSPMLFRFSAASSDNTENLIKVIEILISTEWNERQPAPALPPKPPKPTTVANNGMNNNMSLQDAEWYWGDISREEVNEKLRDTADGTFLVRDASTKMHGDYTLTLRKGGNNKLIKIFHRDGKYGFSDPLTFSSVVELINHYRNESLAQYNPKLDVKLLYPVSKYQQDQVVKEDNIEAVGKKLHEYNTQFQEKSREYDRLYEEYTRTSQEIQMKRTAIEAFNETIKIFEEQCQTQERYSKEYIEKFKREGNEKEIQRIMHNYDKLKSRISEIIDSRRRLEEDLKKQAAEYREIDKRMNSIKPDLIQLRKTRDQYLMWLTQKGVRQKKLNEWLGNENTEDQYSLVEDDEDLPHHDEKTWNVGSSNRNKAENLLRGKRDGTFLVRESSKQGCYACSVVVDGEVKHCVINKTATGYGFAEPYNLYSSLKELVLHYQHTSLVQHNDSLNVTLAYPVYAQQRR

Experiment [1] deals with caveolin-1 (human (endogenous in Chang cells)) (UniProt Q03135). Put plainly: co-IP; endogenous Cav1 precipitated with anti-Caveolin antibody (BD Transduction) and Protein G magnetic beads from Chang cell lysates (20 mM Tris, 150 mM NaCl, 1% Triton-X-100, pH 7.5); cells not infected or infected with N927 (PorBIA, P-) at MOI 20 for 1 h; in one experiment PLCγ1 inhibitor U73122 (10 µM) added 30 min before infection; Western blot. (In general: A western blot detects proteins with antibodies after separation by electrophoresis.)

Experiment [2] shares this target. The description is as above. The source holds these as a separate data set.

Like-named read-outs stand apart in the source and are kept apart here. Results are given in words; binding and its absence hold for the method and conditions named. Binding seen in cells or lysates may run through a third protein. Some binding calls cover weakened binding; strength is not graded here.

On to “p85 regulatory subunit of phosphoinositide 3-kinase (PI3K, regulatory subunit p85α) (from UniProt P27986 1-724)”, for which, in experiment [1], the binding entry was “binds”.

B1: phospholipase Cγ1 (enzyme, UniProt P19174 1-1290)
chain: MAGAASPCANGCGPGAPSDAEVLHLCRSLEVGTVMTLFYSKKSQRPERKTFQVKLETRQITWSRGADKIEGAIDIREIKEIRPGKTSRDFDRYQEDPAFRPDQSHCFVILYGMEFRLKTLSLQATSEDEVNMWIKGLTWLMEDTLQAPTPLQIERWLRKQFYSVDRNREDRISAKDLKNMLSQVNYRVPNMRFLRERLTDLEQRSGDITYGQFAQLYRSLMYSAQKTMDLPFLEASTLRAGERPELCRVSLPEFQQFLLDYQGELWAVDRLQVQEFMLSFLRDPLREIEEPYFFLDEFVTFLFSKENSVWNSQLDAVCPDTMNNPLSHYWISSSHNTYLTGDQFSSESSLEAYARCLRMGCRCIELDCWDGPDGMPVIYHGHTLTTKIKFSDVLHTIKEHAFVASEYPVILSIEDHCSIAQQRNMAQYFKKVLGDTLLTKPVEISADGLPSPNQLKRKILIKHKKLAEGSAYEEVPTSMMYSENDISNSIKNGILYLEDPVNHEWYPHYFVLTSSKIYYSEETSSDQGNEDEEEPKEVSSSTELHSNEKWFHGKLGAGRDGRHIAERLLTEYCIETGAPDGSFLVRESETFVGDYTLSFWRNGKVQHCRIHSRQDAGTPKFFLTDNLVFDSLYDLITHYQQVPLRCNEFEMRLSEPVPQTNAHESKEWYHASLTRAQAEHMLMRVPRDGAFLVRKRNEPNSYAISFRAEGKIKHCRVQQEGQTVMLGNSEFDSLVDLISYYEKHPLYRKMKLRYPINEEALEKIGTAEPDYGALYEGRNPGFYVEANPMPTFKCAVKALFDYKAQREDELTFIKSAIIQNVEKQEGGWWRGDYGGKKQLWFPSNYVEEMVNPVALEPEREHLDENSPLGDLLRGVLDVPACQIAIRPEGKNNRLFVFSISMASVAHWSLDVAADSQEELQDWVKKIREVAQTADARLTEGKIMERRKKIALELSELVVYCRPVPFDEEKIGTERACYRDMSSFPETKAEKYVNKAKGKKFLQYNRLQLSRIYPKGQRLDSSNYDPLPMWICGSQLVALNFQTPDKPMQMNQALFMTGRHCGYVLQPSTMRDEAFDPFDKSSLRGLEPCAISIEVLGARHLPKNGRGIVCPFVEIEVAGAEYDSTKQKTEFVVDNGLNPVWPAKPFHFQISNPEFAFLRFVVYEEDMFSDQNFLAQATFPVKGLKTGYRAVPLKNNYSEDLELASLLIKIDIFPAKENGDLSPFSGTSLRERGSDASGQLFHGRAREGSFESRYQQPFEDFRISQEHLADHFDSRERRAPRRTRVNGDNRL
For B1, the binding result in experiment [2] is recorded as “binds”.
